Source: doi:10.1101/2025.11.21.689856
These are yes or no findings as the source states them, for the method shown. In cells and extracts the contact can be indirect. Some binding calls cover weakened binding; strength is not graded here. For some assays here: Where a sequence is shown, tags or fusion partners need not be part of it.

What was measured:
Assay in all cases: co-IP
[1] = target: T1, Biglycan (BGN) (human (endogenous in hPAECs)) (UniProt P21810)
T1 sequence: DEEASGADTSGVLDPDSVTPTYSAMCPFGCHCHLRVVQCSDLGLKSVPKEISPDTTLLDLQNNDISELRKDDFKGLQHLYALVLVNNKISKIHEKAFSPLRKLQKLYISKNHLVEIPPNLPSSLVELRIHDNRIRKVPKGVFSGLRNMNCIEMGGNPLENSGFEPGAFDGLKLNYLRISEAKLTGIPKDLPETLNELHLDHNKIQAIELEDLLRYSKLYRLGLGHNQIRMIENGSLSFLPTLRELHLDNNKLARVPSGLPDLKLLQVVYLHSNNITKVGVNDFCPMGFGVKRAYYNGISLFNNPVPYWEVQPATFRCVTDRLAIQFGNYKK

[2] = target: Thioredoxin domain containing 5 (TXNDC5) (human (endogenous in hPAECs)) (UniProt Q8NBS9)
[3] = target: HA-TXNDC5 (wild type) (human) (UniProt Q8NBS9)
[4] = target: HA-TXNDC5 C89A (human) (UniProt Q8NBS9)
[5] = target: HA-TXNDC5 G351A (human) (UniProt Q8NBS9)

## Thioredoxin domain containing 5 (TXNDC5) (from UniProt Q8NBS9 33-432)
[1]
  binding: binds

B1: Biglycan (BGN) (protein, UniProt P21810 38-368)
chain: T1 sequence
[2]
  binding: binds

B2: FLAG-BGN (protein, UniProt P21810 38-368)
chain: T1 sequence
[3]
  binding: binds
[4]
  binding: binds
[5]
  binding: binds
